# Results: publication PMC4270438
# These are yes or no findings as the source states them, for the method shown. In cells and extracts the contact can be indirect. Binding calls can cover weak binding; strength is not graded here.
# Target: SCL (wild type human SCL, short isoform p22) (human)
# Assay: co-IP; thymocyte extracts immunoprecipitated with the indicated antibodies, followed by western blotting
binder,measurement,value
"LMO1 (protein, UniProt P25800 1-156) MMVLDKEDGVPMLSVQPKGKQKGCAGCNRKIKDRYLLKALDKYWHEDCLKCACCDCRLGEVGSTLYTKANLILCRRDYLRLFGTTGNCAACSKLIPAFEMVMRARDNVYHLDCFACQLCNQRFCVGDKFFLKNNMILCQMDYEEGQLNGTFESQVQ",binding,binds
